Consider 37 compounds from PubChem BioAssay AID2685 (National Center for Advancing Translational Sciences (NCATS), 2010).

This experiment can be described thus: qHTS Assay for Lipid Storage Modulators in Drosophila S3 Cells.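 For cell number change: cells counted by Cell Tracker Red CMTPX staining in the red channel.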 The settings on record: BODIPY lipid droplet fluorescence, 18-24 h; for cell number change: measured here: cell count max response, cells fed with added oleic acid. The procedure, abridged: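 Drosophila S3 cells loaded with oleic acid (400 uM, as added) and compounds at several concentrations; lipid droplets imaged by 488-nm laser-scanning cytometry, 500–530 nm intensity and object ratio to cell channel. Percent activity normalized to 20 uM Triacsin C.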
(Quantitative high-throughput screening tests each substance at several concentrations.)

[1] abbreviates: measured here: lipid fluorescence (Fed channel) AC50, cells fed with added oleic acid.
The mark [2] stands for this setting: measured here: cell number channel AC50, cells fed with added oleic acid.

Some of the results follow. Shown are side measurements of this screen, not its main read-out; they come without a call. The list favours compounds with an active or inconclusive main result. Words in brackets tell the shape of the fitted curve; partial curves, single points and poor fits give uncertain potencies.

What is called AC50 is the concentration giving half of the maximal activity seen. Turning to `COc1ccc(N(C(=O)CCl)C(C(=O)NC2CCCCC2)c2cccnc2)cc1` (centres undefined), the cell number change came out at 0.422%. For the same compound, the AC50 under setting [1] is 29.1 µM [falling, single point].
Turning to `O=C1CCc2cc(S(=O)(=O)NC(C(=O)NCc3cccnc3)c3ccccc3)ccc2N1` (centres undefined), the cell number change was 0.487%. Also, the AC50 under setting [1] is 0.13 µM [falling, full curve, poor fit].
In the case of `CCNS(=O)(=O)c1ccc(CCC(=O)Nc2ccc3c(c2)OCCO3)cc1`, the cell number change is -10.3%. Also, under setting [1], the half-maximal activity concentration (AC50) was 14.6 µM [rising, partial curve, poor fit].
Take `CCOC(=O)CC(NS(=O)(=O)c1ccc(OC)c(C)c1)c1cccc([N+](=O)[O-])c1` (centres undefined): the cell number change was found to be 44.3%. Under setting [2], the AC50 is 0.82 µM [rising, partial curve].
In the case of `CSCC[C@@H](C(=O)NCc1cccs1)N1Cc2ccccc2C1=O`, the cell number change amounted to 3.29%.
As for `COc1ccccc1NS(=O)(=O)c1cccc(C(=O)NCC(c2cccs2)N2CCOCC2)c1` (centres undefined), the cell number change worked out at 30.4%. The AC50 under setting [2] was 16.4 µM [rising, partial curve, poor fit]. The AC50 under setting [1] is 29.1 µM [rising, partial curve].
For `Cc1noc(C)c1CSc1nc2ccccc2n1C`, the cell number change is 0.209%. The AC50 under setting [1] is 0.291 µM [rising, partial curve, poor fit].
`O=S(=O)(Nc1ccccn1)c1ccc(C(F)(F)F)cc1Cl`: the AC50 runs as follows: under setting [2], 0.206 µM [falling, partial curve, poor fit]; under setting [1], 6.51 µM [falling, single point].
As to `CC(=O)N1CCN(Cc2ccc(Br)s2)CC1`, the cell number change came out at 6.2%.
Take `Cc1noc(/C=C/N(C)C)c1S(=O)(=O)N1CCc2ccccc21`: the AC50 under setting [1] is 29.1 µM [rising, single point].
Turning to `CSc1ncccc1C(=O)OCC(=O)N(C)C1CCS(=O)(=O)C1` (centres undefined), the cell number change was -3.25%. Also, under setting [1], the AC50 is 29.1 µM [falling, single point].
Turning to `CCN(CC(=O)Nc1ccc(OC)cc1)C(=O)CSCc1ccc(C)cc1`, the cell number change was -0.963%. Moreover, the AC50 under setting [1] is 0.082 µM [falling, partial curve, poor fit].
`CCN(CC)CCn1c(=N)n(CCO)c2ccccc21`: the AC50 under setting [1] is 2.06 µM [falling, partial curve].
Regarding `O=C(COC(=O)CNC(=O)c1ccccc1)NC1CCCC1`, the cell number change was -1.6%. The concentration at half-maximal activity (AC50) under setting [1] was 20.6 µM [rising, single point].
Consider `CC(Sc1nnc(COc2ccc(Cl)cc2)o1)C(=O)Nc1ccc(N2CCOCC2)cc1` (centres undefined), for which the cell number change was -94.3%. The AC50 under setting [2] is 4.61 µM [falling, full curve]. Moreover, under setting [1], the AC50 was 2.91 µM [falling, single point].
For the compound `COc1ccc(Cn2c(C(C)C)nc3sc4ccccc4c(=O)c3c2=O)cc1`, the cell number change turned out to be 10.1%. In addition, the half-maximal activity concentration (AC50) under setting [2] was 0.461 µM [rising, full curve, poor fit]. Further, the AC50 under setting [1] is 1.16 µM [rising, full curve, poor fit].
As for `CC(C)(C)C(=O)NNC(=O)C1CC1(c1ccccc1)c1ccccc1` (centres undefined), the cell number change is -10.7%. The half-maximal activity concentration (AC50) under setting [1] is 0.517 µM [falling, full curve].
As to `CCC(C)(NC(=O)CNC(C)=O)C(=O)NC1CCCCC1` (centres undefined), the cell number change was -8.36%. The AC50 under setting [2] is 0.291 µM [falling, full curve, poor fit]. Moreover, the AC50 under setting [1] is 29.1 µM [falling, single point].
For the compound `CCCOc1ccc(-c2nc3c(c(=O)[nH]c(=O)n3Cc3ccccc3)n2CCO)cc1OCC`, the cell number change was 8.4%. In addition, the AC50 under setting [1] is 29.1 µM [falling, single point].
On to `COc1cc(/C=C/C(=O)O)cc(S(=O)(=O)Nc2cccc(SC)c2)c1OC`, for which the cell number change was -16.7%. The concentration at half-maximal activity (AC50) under setting [2] was 1.16 µM [rising, full curve].
In the case of `O=c1c(C(c2ccccc2)c2c(O)sc3ccccc3c2=O)c(O)sc2ccccc12`, the AC50 under setting [2] is 0.103 µM [rising, full curve, poor fit].
For `CCOC(=O)c1cc2sccc2n1CC(=O)N1c2ccccc2CC1C` (centres undefined), the cell number change is -46.4%. For the same compound, under setting [2], the AC50 was 7.31 µM [falling, partial curve]. The AC50 under setting [1] was 20.6 µM [falling, single point].
As to `Cc1cc(=O)oc2cc(OCC(=O)NC3CCCCC3)ccc12`, the cell number change is -3.85%.
On to `C/C(=N\NC(=O)c1ccc(Cl)cc1)c1ccccn1`, for which the cell number change is -43.7%. The AC50 under setting [2] is 3.26 µM [falling, full curve, poor fit]. The AC50 under setting [1] is 3.66 µM [falling, full curve].
As to `Cc1ccccc1NC(=O)OCc1cccnc1Sc1ccc(Cl)cc1`, the cell number change is -16.3%. Under setting [1], the AC50 is 0.058 µM [falling, full curve, poor fit].
With `CCOc1ccc(NC(=O)CN(C)C(=O)CCCOc2ccc(Cl)c(C)c2)cc1OCC`, the cell number change is -2.64%. Under setting [1], the AC50 was 29.1 µM [falling, single point].
`CCCCSc1nnc(-c2ccccc2NC(C)=O)c(=O)[nH]1`: the cell number change is -20.8%.
Take `O=C1C(Cl)=C(NCCN2CCOCC2)C(=O)c2ccccc21`: the cell number change was -46.8%. The AC50 under setting [2] is 1.64 µM [falling, partial curve, poor fit].
For the compound `CCOC(=O)N/N=C(\CCC(=O)O)c1cccs1`, the cell number change is 10.7%. The AC50 under setting [2] is 0.103 µM [falling, single point]. Further, the half-maximal activity concentration (AC50) under setting [1] is 4.11 µM [falling, single point].
In the case of `O=C(CCC1=NS(=O)(=O)c2ccccc2N1)NC1CCCCCCC1`, the cell number change was -21.2%.
`CSc1nc2cc(S(=O)(=O)N3CCCCC3)ccc2s1`: the cell number change was 2.34%. The AC50 under setting [2] is 1.84 µM [rising, partial curve, poor fit]. Also, under setting [1], the AC50 was 1.84 µM [rising, partial curve].
As for `O=C(CN1CCOCC1)Nc1ccc(OCc2ccccc2)cc1`, the cell number change is -14.9%. For the same compound, under setting [1], the half-maximal activity concentration (AC50) is 0.103 µM [falling, single point].
For the compound `Cc1cc(C)c(S(=O)(=O)N2CCc3ccccc32)c(C)c1`, the cell number change is -6.22%. The AC50 under setting [1] was 29.1 µM [falling, single point].
Turning to `CC1CN(CCOc2ccccc2C(C)C)CC(C)O1` (centres undefined), the cell number change is -6.74%. Further, the concentration at half-maximal activity (AC50) under setting [1] is 3.26 µM [falling, full curve, poor fit].
Turning to `CCc1ccc(Cn2nnc(C(=O)Nc3ccc(OC)cc3OC)c2N)cc1`, the cell number change was -8.4%. In addition, the AC50 under setting [1] was 0.366 µM [rising, partial curve, poor fit].
Consider `COc1cc(CNc2nc(C)c([N+](=O)[O-])c(C)c2C#N)cc(OC)c1OC`, for which the cell number change is -0.482%. Further, the AC50 under setting [1] is 0.13 µM [rising, full curve, poor fit].
Take `NNC(=O)CC12CC3CC(C1)CC(n1ncnn1)(C3)C2`: the cell number change was -21%. In addition, under setting [1], the half-maximal activity concentration (AC50) was 0.13 µM [falling, full curve, poor fit].
